No constants are given. Whether binding was seen depends on the method and setting. For some assays here: Binding seen in cells or lysates may run through a third protein. Some binding calls cover weakened binding; strength is not graded here. For some assays here: Sequences can lack the tags named with a protein. Each block holds one substance with its values, some of them ahead of it.
Assays:
[1] = biological target: Vpr in pGBT9 (yeast two-hybrid fusion) (HIV-1) (UniProt P12520); assay: two-hybrid; vpr in pGBT9, rhp23 fused to the activation domain in pGAD-GH; β-galactosidase assay on cell extracts
[2] = biological target: HA-Vpr fusion (HIV-1 Vpr) expressed from pSF173 in fission yeast (HIV-1) (UniProt P12520); assay: co-IP; fission yeast lysates, anti-HA antibody overnight at 4°C, protein A-agarose beads, washed with PBS; blots with anti-Mts2 or anti-Mts4; HA-Rhp23 with or without vpr expression
GST-Vpr (HIV-1) = GST-Vpr (HIV-1) (UniProt P12520); assay: pull-down; GST or GST-Vpr from bacterial lysates immobilized on GST-agarose beads, incubated with in vitro translated 35S-labeled Rhp23; extensive washes, SDS-PAGE, autoradiography; only the target purified
[3] = biological target: T1, HA-tagged Kir2.1 (control) (UniProt P63252); assay: co-IP; HeLa cells 48 hrs after transfection, ProFound Mammalian HA Tag IP/Co-IP kit (anti-HA agarose, overnight, washed with TBST); blots with anti-S2 and anti-S5a
T1 sequence: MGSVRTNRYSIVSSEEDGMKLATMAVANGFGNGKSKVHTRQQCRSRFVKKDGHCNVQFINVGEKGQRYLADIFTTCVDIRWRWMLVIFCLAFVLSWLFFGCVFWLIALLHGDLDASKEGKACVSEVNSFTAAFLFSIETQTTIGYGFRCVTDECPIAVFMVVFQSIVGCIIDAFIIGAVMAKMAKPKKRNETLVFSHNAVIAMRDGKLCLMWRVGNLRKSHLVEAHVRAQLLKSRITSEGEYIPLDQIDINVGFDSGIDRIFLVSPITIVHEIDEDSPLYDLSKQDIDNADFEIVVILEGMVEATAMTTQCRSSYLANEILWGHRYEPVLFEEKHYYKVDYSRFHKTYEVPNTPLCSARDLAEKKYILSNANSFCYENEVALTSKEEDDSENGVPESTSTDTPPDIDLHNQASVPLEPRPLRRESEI

The chains behind the UniProt entries cited, without tags or fusion partners.
UniProt P12520: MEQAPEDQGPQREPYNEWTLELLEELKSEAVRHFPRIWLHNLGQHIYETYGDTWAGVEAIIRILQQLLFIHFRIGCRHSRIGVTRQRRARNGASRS
UniProt O74803: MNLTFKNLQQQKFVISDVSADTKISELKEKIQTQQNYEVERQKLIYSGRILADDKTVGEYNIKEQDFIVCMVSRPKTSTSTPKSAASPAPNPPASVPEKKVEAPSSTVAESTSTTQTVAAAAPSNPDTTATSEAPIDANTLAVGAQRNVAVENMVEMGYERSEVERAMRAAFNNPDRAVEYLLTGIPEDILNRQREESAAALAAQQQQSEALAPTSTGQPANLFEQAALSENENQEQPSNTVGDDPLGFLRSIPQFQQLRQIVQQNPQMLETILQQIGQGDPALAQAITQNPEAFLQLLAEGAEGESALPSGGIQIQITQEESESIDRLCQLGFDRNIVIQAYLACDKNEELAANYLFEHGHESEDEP
UniProt P36612: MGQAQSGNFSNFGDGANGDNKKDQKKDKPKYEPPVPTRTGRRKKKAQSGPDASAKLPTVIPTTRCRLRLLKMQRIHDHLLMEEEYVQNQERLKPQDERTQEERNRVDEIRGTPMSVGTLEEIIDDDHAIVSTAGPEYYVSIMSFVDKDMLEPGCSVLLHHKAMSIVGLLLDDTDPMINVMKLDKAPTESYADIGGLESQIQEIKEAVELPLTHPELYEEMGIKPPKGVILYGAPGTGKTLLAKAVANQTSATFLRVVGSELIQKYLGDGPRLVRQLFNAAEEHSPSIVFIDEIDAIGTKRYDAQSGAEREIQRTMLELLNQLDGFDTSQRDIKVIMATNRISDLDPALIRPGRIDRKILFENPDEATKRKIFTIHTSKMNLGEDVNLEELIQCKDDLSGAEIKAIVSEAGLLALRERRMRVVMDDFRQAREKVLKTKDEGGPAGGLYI
UniProt P55036: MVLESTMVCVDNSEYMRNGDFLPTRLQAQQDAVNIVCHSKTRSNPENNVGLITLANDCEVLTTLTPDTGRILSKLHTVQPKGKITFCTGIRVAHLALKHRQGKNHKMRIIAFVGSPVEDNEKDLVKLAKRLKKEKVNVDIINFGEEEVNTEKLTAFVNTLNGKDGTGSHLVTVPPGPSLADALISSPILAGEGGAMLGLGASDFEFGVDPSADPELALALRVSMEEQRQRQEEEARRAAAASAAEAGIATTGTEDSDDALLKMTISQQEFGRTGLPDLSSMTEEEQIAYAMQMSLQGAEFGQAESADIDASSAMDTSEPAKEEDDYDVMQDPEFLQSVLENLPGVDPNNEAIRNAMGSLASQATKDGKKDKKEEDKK
UniProt Q13200: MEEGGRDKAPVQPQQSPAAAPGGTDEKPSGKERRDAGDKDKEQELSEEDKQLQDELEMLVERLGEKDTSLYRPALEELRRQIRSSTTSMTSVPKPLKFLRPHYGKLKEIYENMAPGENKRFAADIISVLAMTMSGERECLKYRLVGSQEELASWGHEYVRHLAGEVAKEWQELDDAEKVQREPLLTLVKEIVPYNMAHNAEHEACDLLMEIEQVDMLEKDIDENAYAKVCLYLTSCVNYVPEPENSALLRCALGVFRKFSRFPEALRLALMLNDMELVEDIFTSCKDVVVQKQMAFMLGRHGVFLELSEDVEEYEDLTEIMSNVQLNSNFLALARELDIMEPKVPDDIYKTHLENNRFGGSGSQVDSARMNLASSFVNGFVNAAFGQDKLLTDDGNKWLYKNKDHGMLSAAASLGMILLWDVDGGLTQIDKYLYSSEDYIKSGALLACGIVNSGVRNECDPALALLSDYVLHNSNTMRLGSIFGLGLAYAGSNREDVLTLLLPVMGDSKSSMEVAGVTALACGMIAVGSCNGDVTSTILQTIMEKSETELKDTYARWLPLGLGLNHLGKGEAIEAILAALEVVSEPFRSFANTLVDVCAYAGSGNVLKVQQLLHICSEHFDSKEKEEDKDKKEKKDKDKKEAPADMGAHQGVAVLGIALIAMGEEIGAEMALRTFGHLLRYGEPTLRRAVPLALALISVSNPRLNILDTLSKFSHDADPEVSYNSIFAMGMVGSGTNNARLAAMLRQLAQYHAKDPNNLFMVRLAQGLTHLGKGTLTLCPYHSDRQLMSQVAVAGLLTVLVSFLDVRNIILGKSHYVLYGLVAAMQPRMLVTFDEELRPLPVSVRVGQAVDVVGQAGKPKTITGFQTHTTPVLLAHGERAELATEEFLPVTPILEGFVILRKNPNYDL

Substance: Rhp23 fused to the activation domain in pGAD-GH (yeast two-hybrid fusion) (from UniProt O74803 1-368)
binding [1]: binds

Substance: Mts2, subunit of the regulatory 19S complex of the fission yeast 26S proteasome (from UniProt P36612 1-448)
binding [2]: binds

Substance: in vitro translated 35S-labeled Rhp23 (from UniProt O74803 1-368)
binding (GST-Vpr (HIV-1)): binds

binding [3]: no binding
Substance: S5a, 19S regulatory subunit of the 26S proteasome (from UniProt P55036 1-377)

binding [3]: no binding
Substance: S2, 19S regulatory subunit of the 26S proteasome (mammalian homologue of fission yeast Mts4) (from UniProt Q13200 1-908)

Reference: PMC2894085
